Experimental data: publication PMC12688176
Results are given in words; binding and its absence hold for the method and conditions named. Binding seen in cells or lysates may run through a third protein. A yes stands for co-enrichment or nearness to the bait. Other partners may have been found.

Amino acid sequences for entries named in this document (tags omitted).
UniProt O14497: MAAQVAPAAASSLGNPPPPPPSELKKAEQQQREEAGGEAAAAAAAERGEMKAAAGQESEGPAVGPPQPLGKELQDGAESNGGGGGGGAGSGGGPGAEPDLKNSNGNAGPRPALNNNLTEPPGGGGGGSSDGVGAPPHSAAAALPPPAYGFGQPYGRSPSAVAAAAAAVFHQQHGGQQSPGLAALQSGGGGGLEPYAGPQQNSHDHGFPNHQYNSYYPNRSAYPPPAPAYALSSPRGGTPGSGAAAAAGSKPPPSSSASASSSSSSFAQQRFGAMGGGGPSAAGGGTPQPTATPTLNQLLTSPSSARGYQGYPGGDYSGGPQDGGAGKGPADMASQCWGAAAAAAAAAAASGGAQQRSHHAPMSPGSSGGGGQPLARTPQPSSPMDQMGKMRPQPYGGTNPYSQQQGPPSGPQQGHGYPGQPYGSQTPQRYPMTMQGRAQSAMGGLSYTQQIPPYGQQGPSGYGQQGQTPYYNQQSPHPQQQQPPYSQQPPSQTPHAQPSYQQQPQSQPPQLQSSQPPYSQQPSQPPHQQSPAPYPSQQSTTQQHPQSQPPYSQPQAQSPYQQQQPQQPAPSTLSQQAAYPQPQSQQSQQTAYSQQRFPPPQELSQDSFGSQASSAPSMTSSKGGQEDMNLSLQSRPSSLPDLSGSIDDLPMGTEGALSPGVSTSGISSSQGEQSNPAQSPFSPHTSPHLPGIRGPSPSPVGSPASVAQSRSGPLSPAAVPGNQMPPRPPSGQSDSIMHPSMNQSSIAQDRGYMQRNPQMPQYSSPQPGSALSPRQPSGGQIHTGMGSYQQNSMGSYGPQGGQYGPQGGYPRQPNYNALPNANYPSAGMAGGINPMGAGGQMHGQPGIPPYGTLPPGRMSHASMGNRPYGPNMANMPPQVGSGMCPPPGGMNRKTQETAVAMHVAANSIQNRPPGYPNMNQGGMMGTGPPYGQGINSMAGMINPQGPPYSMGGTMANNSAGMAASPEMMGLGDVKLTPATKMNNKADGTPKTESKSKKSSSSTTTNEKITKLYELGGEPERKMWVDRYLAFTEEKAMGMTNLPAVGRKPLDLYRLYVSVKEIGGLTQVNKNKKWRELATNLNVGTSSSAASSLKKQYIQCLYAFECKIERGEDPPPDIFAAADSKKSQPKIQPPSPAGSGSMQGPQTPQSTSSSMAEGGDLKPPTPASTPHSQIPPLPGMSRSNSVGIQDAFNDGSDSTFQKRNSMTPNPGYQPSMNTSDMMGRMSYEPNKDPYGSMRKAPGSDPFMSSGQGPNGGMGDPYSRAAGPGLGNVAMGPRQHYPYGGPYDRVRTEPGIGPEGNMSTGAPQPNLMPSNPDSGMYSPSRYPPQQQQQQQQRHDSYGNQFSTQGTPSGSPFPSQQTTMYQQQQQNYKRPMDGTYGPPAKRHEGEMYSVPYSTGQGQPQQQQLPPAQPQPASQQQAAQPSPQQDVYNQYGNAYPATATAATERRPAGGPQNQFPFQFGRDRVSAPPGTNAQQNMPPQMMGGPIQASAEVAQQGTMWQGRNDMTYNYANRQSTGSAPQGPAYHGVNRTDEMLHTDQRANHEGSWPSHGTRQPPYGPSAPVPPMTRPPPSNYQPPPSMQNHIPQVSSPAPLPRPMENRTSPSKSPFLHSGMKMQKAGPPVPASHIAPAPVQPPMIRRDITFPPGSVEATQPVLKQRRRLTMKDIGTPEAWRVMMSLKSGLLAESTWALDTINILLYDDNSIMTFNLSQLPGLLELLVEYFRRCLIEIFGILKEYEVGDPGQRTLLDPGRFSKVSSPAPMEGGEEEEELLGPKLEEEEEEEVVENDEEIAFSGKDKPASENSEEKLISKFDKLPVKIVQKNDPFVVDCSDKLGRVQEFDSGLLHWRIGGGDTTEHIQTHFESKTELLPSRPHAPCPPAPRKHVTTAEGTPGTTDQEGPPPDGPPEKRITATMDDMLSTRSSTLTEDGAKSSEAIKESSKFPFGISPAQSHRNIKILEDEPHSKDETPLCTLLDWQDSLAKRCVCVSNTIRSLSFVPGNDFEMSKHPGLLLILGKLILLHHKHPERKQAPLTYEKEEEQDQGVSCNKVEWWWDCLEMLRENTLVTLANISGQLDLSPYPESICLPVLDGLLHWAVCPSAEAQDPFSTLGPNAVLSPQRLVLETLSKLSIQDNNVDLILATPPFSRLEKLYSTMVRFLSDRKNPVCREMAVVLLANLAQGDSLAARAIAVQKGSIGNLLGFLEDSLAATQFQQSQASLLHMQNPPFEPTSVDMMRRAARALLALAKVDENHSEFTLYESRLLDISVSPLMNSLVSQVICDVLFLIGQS
UniProt P51532: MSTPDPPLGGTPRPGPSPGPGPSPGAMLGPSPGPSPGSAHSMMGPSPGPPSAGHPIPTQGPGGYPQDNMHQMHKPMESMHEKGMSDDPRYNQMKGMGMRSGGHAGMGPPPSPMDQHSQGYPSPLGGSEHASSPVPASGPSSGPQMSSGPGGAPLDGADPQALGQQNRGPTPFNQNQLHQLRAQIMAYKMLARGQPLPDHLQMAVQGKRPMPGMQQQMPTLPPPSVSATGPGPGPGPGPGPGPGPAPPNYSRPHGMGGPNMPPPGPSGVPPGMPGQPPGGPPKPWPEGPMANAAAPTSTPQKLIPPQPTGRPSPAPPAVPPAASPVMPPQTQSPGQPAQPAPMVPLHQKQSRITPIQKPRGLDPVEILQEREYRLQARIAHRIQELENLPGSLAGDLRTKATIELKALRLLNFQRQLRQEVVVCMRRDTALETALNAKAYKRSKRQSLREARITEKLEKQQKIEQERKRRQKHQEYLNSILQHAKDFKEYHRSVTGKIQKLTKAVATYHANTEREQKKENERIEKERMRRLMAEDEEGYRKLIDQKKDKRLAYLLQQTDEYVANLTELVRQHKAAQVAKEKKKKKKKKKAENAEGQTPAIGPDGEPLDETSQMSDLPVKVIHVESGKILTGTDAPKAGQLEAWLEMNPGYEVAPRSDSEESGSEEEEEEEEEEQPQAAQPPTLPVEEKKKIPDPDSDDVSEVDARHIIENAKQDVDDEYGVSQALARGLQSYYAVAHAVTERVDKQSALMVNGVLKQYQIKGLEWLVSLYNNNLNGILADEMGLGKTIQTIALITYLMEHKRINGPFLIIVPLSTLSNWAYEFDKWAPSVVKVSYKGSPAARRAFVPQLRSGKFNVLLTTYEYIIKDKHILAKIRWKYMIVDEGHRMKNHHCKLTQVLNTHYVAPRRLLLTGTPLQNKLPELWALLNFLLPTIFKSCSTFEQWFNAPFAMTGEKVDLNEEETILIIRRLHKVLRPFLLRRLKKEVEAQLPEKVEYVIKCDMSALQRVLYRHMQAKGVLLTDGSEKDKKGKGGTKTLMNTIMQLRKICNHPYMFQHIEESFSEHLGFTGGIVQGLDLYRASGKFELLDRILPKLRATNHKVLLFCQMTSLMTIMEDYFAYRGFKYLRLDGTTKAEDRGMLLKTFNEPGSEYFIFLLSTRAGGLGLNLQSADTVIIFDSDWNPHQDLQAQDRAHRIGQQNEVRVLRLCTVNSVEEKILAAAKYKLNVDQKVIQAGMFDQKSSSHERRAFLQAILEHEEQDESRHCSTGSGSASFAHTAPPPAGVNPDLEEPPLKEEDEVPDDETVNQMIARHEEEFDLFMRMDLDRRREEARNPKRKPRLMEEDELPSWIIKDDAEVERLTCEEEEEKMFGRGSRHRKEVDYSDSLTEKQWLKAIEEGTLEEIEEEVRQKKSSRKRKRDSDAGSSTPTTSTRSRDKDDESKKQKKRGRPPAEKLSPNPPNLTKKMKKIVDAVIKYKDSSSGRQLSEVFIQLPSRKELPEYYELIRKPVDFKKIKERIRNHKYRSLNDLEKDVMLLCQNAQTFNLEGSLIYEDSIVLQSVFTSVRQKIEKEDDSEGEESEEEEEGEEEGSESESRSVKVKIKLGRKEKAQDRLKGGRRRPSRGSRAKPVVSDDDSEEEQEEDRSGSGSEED
UniProt Q12824: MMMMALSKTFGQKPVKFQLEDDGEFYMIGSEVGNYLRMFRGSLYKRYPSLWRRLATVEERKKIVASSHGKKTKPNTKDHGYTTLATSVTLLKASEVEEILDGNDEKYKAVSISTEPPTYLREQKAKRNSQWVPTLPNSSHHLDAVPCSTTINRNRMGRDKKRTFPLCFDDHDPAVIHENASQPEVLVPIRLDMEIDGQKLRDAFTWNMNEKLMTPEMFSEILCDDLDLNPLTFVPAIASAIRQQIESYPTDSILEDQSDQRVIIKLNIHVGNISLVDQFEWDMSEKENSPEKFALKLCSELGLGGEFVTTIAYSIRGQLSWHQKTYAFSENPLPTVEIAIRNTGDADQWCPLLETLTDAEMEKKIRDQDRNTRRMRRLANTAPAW

Biological target: AT-rich interactive domain-containing protein 1A (human (endogenous in HBLAK and UROtsa)) (UniProt O14497)
Experiment: affinity purification with mass spectrometry; co-IP of endogenous ARID1A with antibody D2A8U against rabbit IgG isotype control from HBLAK and UROtsa lysates (IP-1: 20 mM HEPES pH 7.4, 150 mM NaCl, 0.5% NP-40, 2 mM EDTA); SDS/PAGE, trypsin digest, nanoLC-MS/MS, label-free quantitation; three biological replicates; consensus of proteins enriched more than 10-fold in both cell lines

| binding | Substance |
| --- | --- |
| binds | SMARCA4 (from UniProt P51532 1-1647) |
| binds | SMARCB1 (from UniProt Q12824 1-385) |
